According to PubChem BioAssay AID493014 (National Center for Advancing Translational Sciences (NCATS), 2011):
Some of the results follow. The main result of the screen is listed elsewhere. These columns were measured beside it and carry no call. Most of these compounds were active or inconclusive in the main read-out, so they are no random draw. The note in brackets gives the kind of curve behind each potency; many fits are weak.

Experiment: qHTS Assay to Find Inhibitors of Chronic Active B-Cell Receptor Signaling
Details: ABC-DLBCL IkBa-CBG/CBR reporter, luminescence ratio (green luciferase fused to IkBa over red control in TMD8 lymphoma cells), 4 h
How it was run: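 Cell line TMD8 (human ABC DLBCL), stably expressing tet-inducible CBG68-IkBa fusion and CBR; IMDM/0.5% FBS; cpd up to 46 uM; dox induction, 4 h, 37C/5% CO2; dual luminescence; green/red ratio; MG132 control.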

[1] = measured here: CBR red luminescence, cell number
[2] = measured here: IkBa-CBG green luminescence

## CCCc1cc(C(=O)Nc2ccc(CC)cc2)no1
[1]
  AC50: 0.251 µM [rising, full curve, poor fit]

## COc1ccccc1C(CNC(=O)c1oc2ccccc2c1C)N1CCCC1 (stereo unspecified)
[1]
  AC50: 11.6 µM [falling, partial curve]

## Cc1sc2ncnc(N3CCC(C(=O)N(CC(C)C)c4nc5ccccc5s4)CC3)c2c1C
[1]
  AC50: 25.9 µM [rising, single point]

## Cc1cc(C(F)F)n2nc(C(=O)Nc3ccccc3Br)nc2n1
[1]
  AC50: 2.59 µM [falling, partial curve, poor fit]

## COc1ccccc1NC(=O)CSc1nnc(-c2ccccn2)n1Cc1ccco1
[1]
  AC50: 35.5 µM [falling, single point]

## Cc1nnc(SCC(=O)N2CCN(S(=O)(=O)c3ccc(Cl)cc3)CC2)[nH]c1=O
[1]
  AC50: 0.1 µM [rising, full curve, poor fit]

## Cc1ccc2oc(-c3cccc(NC(=O)Cn4cnc5c(=O)n(C)c(=O)n(C)c54)c3)nc2c1
[1]
  AC50: 2.82 µM [rising, full curve]

## COc1ccc(NC(=O)CSc2nnc(N)n2CC(=O)Nc2ccc(OC)cc2)cc1
[1]
  AC50: 7.08 µM [rising, full curve]

## Cn1ccc(C(=O)OCC(=O)Nc2cccc3ccccc23)n1
[1]
  AC50: 11.2 µM [falling, partial curve]

## COC(=O)c1cc(Cn2nc(C(=O)O)c3ccccc3c2=O)oc1C
[1]
  AC50: 3.16 µM [falling, single point]

## C=CCn1nnc2sc3c(c2c1=O)CCC(C)C3 (stereo unspecified)
[1]
  AC50: 29.1 µM [rising, single point]

## CCN(CC(=O)Nc1c(F)cccc1F)C(=O)c1ccc2c(c1)OCO2
[2]
  AC50: 32.6 µM [rising, partial curve, poor fit]

## Cc1cc(-c2nnc(CCC(=O)N(C)C(C)c3cccs3)o2)no1 (stereo unspecified)
[1]
  AC50: 3.98 µM [rising, partial curve, poor fit]

## CN(CC(=O)Nc1ccccc1Cl)CC(=O)Nc1ccccc1[N+](=O)[O-]
[1]
  AC50: 6.31 µM [rising, partial curve]

## O=C(NC(=S)NNC(=O)c1cccs1)c1ccco1
[1]
  AC50: 5.01 µM [falling, partial curve]

## CCCCCC(O)c1cccc(OCc2ccc3ccccc3n2)c1 (stereo unspecified)
[1]
  AC50: 1.84 µM [rising, full curve, poor fit]

## Oc1cccc(C=NCc2ccccc2)c1O
[1]
  AC50: 0.651 µM [rising, partial curve]

## CCNS(=O)(=O)c1ccc(C(=O)OCC(=O)N2CCCc3ccccc32)cc1
[1]
  AC50: 10.3 µM [rising, partial curve]

## COCCn1nnnc1C(c1cc2c(C)cc(C)cc2[nH]c1=O)N1CCCCCC1 (stereo unspecified)
[1]
  AC50: 11.6 µM [falling, partial curve, poor fit]

## Cn1c(CN2CCCCC2)nc2cc(NC(=O)c3ccc(F)cc3)ccc21
[1]
  AC50: 17.8 µM [falling, partial curve, poor fit]

## Cc1ccc(NC(=O)c2ccc(Cl)c(S(=O)(=O)NCC3CCCO3)c2)c(O)c1 (stereo unspecified)
[1]
  AC50: 6.31 µM [falling, single point]

## CCOC(=O)c1c(C)[nH]c(C)c1C(=O)COC(=O)CNC(=O)C1CCCCC1
[1]
  AC50: 14.1 µM [rising, single point]

## CS(=O)(=O)N(Cc1ccco1)Cc1ccccc1Cl
[1]
  AC50: 0.103 µM [rising, full curve, poor fit]

## CCN(CC)S(=O)(=O)c1ccc(C(=O)NCc2n[nH]c(=S)n2-c2ccc(Cl)c(Cl)c2)cc1
[1]
  AC50: 2.51 µM [rising, full curve]

## CCCn1c(C(O)c2ccc(OC)cc2)nc2ccccc21 (stereo unspecified)
[1]
  AC50: 10.3 µM [rising, partial curve, poor fit]

## C=CCNC(=O)c1ccc(-c2nc(-c3ccccc3)cs2)cc1
[1]
  AC50: 7.31 µM [rising, partial curve, poor fit]

## COc1cccc(-c2coc3c(C)c4oc(=O)c(CCC(=O)O)c(C)c4cc23)c1
[1]
  AC50: 15.8 µM [falling, single point]

## Cc1occc1C(=O)NNC(=S)Nc1cccc([N+](=O)[O-])c1
[1]
  AC50: 22.4 µM [falling, single point]

## O=C1C=C(Nc2ccccc2)C(=O)c2ccccc21
[1]
  AC50: 1.12 µM [falling, full curve, poor fit]

## Nc1nnc(CC(=O)N/N=C/c2ccccc2OCc2ccc(F)cc2)s1
[1]
  AC50: 20 µM [falling, single point]

## COc1ccc([N+](=O)[O-])cc1N(CC(=O)NC(C(C)C)C(C)C)S(C)(=O)=O
[1]
  AC50: 35.5 µM [rising, single point]

## Cc1cc(O)c(C(C)C)cc1C1(c2cc(C(C)C)c(O)cc2C)OC(=O)c2ccccc21
[1]
  AC50: 17.8 µM [falling, partial curve]
[2]
  AC50: 31.6 µM [rising, partial curve, poor fit]

## CCOc1ccc(C2c3[nH]c4ccccc4c3CCN2CCCn2cccn2)cc1 (stereo unspecified)
[1]
  AC50: 35.5 µM [falling, single point]

## N#C/C(=C1/CCCCCN1)c1nc2ccccc2s1
[1]
  AC50: 1 µM [falling, partial curve, poor fit]

## CC(C)NC(=O)N(C)C[C@H]1Oc2c(NC(=O)Nc3ccc(C(F)(F)F)cc3)cccc2C(=O)N([C@H](C)CO)C[C@@H]1C
[1]
  AC50: 6.51 µM [falling, full curve]

## CCN(Cc1ccccc1)C(=O)COC(=O)[C@@H]1CCCN1C(=O)c1cccs1
[1]
  AC50: 7.31 µM [rising, partial curve]

## COc1ccc(CN2C(=O)Cc3c2nc(N)c2c(N)nc(N4CCCCC4)c(C#N)c32)cc1
[1]
  AC50: 0.366 µM [rising, partial curve, poor fit]

## CCN(CC)c1ccc(C(=O)OCC(=O)Nc2cccc(S(=O)(=O)NC3=NCCCCC3)c2)cc1
[1]
  AC50: 29.1 µM [falling, single point]

## Cc1cc2ncn(/N=C/c3ccc([N+](=O)[O-])o3)c2cc1C
[1]
  AC50: 0.562 µM [falling, full curve, poor fit]

## CCCCCCN1C(=O)CC(NC(=O)OCC2c3ccccc3-c3ccccc32)C/C=C\C1C(C)C (stereo unspecified)
[1]
  AC50: 20.6 µM [falling, single point]
